In the supplement of paper PMC6411743:
± gives the standard deviation of the averaged measurements. The list shows a part of the results, in another mix than the full data.

By UniProt entry, the sequences of proteins in these tests, tags left out. Where a name states a change or a piece, a line headed by the entry shows the natural chain unless it says otherwise.
UniProt Q53S33: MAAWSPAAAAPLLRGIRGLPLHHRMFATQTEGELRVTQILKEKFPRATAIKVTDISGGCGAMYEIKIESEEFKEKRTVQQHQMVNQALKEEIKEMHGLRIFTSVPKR
UniProt Q504Q3: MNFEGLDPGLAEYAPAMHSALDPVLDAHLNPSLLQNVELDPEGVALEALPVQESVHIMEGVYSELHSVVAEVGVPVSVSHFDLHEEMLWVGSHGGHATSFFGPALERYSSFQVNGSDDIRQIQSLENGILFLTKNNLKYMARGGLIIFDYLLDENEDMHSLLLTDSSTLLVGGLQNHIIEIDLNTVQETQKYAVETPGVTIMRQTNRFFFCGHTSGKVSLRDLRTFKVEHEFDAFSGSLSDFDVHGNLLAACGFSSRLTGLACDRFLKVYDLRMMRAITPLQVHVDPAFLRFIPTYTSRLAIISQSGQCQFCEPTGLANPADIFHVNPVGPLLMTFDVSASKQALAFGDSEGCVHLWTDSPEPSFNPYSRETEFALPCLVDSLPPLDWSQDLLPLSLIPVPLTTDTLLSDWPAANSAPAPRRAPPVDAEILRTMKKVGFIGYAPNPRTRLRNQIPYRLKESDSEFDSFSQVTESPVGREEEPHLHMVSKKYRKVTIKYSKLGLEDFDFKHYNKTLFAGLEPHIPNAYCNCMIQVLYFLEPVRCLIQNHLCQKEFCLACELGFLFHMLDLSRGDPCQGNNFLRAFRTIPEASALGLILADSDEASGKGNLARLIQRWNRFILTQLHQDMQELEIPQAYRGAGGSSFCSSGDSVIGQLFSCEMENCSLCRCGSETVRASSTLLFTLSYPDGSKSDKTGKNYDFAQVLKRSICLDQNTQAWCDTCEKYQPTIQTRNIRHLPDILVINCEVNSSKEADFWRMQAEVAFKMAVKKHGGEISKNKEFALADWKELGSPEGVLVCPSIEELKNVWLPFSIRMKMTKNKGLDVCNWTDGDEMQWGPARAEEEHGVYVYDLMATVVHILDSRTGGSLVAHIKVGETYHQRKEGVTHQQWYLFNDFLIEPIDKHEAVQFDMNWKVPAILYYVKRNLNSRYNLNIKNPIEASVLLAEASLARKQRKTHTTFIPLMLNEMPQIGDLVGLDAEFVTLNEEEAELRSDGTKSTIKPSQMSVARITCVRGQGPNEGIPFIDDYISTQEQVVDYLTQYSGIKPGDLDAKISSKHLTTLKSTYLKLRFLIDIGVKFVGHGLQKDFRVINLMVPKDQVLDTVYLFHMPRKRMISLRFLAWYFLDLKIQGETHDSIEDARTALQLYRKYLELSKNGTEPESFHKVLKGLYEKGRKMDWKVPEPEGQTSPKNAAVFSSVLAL
UniProt Q32M88: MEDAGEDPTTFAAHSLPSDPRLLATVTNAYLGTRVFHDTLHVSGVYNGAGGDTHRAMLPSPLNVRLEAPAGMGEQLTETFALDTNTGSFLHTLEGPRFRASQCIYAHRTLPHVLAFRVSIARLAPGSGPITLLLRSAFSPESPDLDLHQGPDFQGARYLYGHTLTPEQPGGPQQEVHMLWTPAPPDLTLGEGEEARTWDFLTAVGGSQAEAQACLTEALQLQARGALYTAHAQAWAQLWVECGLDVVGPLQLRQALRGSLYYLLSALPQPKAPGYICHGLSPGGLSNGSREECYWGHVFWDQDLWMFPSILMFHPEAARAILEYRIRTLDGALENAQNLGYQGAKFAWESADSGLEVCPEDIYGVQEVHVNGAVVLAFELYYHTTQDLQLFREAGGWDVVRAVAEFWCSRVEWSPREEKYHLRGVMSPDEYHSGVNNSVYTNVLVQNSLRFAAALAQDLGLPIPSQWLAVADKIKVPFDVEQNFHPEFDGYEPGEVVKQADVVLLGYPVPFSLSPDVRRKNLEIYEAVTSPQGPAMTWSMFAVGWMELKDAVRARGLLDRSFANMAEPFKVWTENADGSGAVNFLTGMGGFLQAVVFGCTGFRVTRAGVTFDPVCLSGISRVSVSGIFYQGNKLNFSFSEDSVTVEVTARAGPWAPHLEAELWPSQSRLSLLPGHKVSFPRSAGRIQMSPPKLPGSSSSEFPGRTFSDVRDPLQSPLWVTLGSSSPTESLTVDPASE
UniProt Q5D1E8: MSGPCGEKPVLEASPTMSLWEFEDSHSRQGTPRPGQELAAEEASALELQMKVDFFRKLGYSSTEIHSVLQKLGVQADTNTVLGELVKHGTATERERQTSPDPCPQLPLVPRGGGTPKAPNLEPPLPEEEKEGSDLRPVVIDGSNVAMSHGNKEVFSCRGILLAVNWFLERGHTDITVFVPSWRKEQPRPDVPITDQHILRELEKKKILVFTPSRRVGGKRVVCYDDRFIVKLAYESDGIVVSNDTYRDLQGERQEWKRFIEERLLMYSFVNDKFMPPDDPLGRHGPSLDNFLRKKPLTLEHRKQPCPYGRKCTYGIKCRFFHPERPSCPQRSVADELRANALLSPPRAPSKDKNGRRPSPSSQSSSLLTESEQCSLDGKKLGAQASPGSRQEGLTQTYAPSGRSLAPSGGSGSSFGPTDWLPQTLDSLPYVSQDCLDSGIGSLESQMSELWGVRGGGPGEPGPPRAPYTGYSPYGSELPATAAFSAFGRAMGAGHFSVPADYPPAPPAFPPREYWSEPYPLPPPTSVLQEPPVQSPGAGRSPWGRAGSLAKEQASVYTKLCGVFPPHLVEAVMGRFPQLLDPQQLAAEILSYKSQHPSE
UniProt Q5PSV4: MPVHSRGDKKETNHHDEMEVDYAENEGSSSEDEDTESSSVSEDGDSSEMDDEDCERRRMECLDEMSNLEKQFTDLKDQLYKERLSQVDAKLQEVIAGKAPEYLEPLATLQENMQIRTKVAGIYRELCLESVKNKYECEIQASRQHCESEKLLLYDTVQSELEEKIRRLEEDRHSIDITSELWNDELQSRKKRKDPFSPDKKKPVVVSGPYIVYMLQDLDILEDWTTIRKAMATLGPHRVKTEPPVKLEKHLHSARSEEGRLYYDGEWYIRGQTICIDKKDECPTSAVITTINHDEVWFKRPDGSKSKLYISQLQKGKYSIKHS
UniProt Q16204: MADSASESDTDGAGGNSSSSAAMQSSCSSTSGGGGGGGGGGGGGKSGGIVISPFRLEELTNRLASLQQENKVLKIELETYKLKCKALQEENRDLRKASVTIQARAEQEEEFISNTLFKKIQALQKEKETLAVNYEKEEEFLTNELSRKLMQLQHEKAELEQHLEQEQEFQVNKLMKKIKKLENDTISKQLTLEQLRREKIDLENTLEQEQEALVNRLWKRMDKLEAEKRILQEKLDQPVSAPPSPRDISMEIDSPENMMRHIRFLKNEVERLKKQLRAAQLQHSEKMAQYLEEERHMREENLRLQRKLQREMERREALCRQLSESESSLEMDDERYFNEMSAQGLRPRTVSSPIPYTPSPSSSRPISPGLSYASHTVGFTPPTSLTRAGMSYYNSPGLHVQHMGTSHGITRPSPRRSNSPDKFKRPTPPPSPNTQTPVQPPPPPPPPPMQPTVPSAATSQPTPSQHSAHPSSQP
UniProt Q96JJ3: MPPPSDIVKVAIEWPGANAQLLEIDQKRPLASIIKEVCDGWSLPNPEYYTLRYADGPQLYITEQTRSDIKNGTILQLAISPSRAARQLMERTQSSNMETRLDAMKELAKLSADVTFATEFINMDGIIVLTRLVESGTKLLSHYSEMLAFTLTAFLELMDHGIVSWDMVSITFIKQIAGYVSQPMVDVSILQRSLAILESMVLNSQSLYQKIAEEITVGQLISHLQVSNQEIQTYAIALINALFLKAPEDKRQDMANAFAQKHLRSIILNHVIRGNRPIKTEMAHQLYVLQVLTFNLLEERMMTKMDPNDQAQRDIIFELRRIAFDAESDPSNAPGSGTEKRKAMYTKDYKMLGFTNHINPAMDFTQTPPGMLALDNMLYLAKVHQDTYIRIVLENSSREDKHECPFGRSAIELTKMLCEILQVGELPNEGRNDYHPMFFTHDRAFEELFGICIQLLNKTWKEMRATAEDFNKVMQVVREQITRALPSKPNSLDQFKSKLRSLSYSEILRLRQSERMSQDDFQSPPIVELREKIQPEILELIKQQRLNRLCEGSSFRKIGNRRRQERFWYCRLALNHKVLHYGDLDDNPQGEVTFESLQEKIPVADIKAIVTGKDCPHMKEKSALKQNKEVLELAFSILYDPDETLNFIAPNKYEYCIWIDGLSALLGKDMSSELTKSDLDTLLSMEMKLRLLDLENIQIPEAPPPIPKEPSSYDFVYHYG
UniProt Q15276: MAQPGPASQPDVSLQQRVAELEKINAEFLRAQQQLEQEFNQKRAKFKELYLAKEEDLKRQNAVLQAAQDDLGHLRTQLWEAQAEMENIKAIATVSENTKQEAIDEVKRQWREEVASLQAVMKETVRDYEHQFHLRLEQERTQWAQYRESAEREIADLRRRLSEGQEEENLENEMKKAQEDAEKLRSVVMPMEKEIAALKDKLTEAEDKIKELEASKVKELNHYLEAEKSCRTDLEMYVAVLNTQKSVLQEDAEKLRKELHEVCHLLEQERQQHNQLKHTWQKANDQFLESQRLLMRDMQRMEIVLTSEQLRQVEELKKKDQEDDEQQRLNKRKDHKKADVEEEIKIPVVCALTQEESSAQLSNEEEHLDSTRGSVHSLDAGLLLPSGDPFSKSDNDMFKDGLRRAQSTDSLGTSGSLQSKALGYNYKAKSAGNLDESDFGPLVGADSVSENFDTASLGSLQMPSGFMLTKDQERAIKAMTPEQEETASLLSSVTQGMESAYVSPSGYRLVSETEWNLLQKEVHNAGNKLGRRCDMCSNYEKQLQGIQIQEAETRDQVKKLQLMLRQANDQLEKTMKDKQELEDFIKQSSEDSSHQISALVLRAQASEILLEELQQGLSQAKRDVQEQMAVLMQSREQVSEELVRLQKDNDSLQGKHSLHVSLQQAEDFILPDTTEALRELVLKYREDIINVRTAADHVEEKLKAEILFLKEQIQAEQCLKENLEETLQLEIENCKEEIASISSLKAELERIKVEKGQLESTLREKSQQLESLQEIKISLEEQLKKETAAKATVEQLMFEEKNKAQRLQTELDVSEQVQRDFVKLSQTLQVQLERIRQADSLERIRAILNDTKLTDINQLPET
UniProt Q92598: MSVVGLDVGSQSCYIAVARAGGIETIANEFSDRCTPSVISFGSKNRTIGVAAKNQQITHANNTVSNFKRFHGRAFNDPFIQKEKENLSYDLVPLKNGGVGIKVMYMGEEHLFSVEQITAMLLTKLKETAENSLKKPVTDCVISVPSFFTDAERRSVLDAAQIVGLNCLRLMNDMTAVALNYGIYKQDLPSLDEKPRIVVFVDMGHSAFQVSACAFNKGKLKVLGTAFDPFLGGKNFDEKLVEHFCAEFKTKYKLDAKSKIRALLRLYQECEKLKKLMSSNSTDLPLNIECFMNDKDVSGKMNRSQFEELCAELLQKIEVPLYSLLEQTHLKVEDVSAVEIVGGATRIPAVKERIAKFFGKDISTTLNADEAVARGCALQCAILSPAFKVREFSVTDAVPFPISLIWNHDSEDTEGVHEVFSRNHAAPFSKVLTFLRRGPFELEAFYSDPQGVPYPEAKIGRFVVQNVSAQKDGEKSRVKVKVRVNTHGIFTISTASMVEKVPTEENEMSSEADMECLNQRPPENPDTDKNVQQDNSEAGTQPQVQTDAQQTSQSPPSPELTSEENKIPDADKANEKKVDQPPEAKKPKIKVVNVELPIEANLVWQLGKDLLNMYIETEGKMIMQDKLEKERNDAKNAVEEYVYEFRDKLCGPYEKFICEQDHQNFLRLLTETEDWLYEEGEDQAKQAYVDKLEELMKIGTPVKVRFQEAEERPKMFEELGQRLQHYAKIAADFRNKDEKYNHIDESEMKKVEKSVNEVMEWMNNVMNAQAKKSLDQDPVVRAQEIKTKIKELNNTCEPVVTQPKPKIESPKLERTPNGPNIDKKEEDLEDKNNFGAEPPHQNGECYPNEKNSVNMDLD
UniProt Q3ZAQ7: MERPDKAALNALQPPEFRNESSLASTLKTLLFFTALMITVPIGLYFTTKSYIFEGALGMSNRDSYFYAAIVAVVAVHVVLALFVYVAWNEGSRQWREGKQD
UniProt Q4G176: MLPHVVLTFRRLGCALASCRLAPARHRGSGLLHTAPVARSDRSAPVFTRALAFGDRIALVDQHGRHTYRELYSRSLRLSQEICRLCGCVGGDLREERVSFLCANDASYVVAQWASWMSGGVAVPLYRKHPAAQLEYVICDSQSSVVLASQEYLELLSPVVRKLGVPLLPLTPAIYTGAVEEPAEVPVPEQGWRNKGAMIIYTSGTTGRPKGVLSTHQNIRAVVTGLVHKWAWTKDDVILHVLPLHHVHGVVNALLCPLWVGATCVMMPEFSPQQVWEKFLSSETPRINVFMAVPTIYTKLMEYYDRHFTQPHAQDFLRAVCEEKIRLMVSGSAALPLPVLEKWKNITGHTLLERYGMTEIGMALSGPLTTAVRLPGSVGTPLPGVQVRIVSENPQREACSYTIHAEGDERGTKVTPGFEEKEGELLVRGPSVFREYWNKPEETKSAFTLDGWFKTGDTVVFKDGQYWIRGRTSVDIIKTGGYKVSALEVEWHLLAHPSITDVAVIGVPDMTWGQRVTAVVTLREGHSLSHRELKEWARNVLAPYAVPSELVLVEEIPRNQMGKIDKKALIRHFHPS

Each target was assayed with Nc1ncnc2c1ncn2[C@@H]1O[C@H](COP(=O)(O)OP(=O)(O)NP(=O)(O)O)[C@@H](O)[C@H]1O [adenylyl imidodiphosphate] (assay: NP40-soluble protein abundance relative to vehicle (solubility fold change) (ratio); higher = more soluble protein in presence of AMP-PNP). Conditions: concentration: 6mM.
Summary of the method: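 Across three independent experiments, values are fold changes against the detergent-processed vehicle for each replicate, based on vsn-normalised intensities. The samples were Jurkat crude lysate treated with eight concentrations (0.1 to 10 mM) for 10 min at room temperature and then 3 min at 37 °C. Lysate was solubilised with 0.8% NP40 and benzonase, ultracentrifuged, and the supernatant analysed by TMT-labelled LC-MS/MS.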
Work on UniProt Q5SQI0 and related entries yielded an NP40-soluble protein abundance of 0.99 ± 0.027.
With UniProt Q4G0J3 and related entries the NP40-soluble protein abundance was 1.18 ± 0.052.
Work on UniProt Q5T0F9-2 yielded an NP40-soluble protein abundance of 1.06 ± 0.023.
UniProt Q5JTH9 and related entries gave an NP40-soluble protein abundance of 0.982 ± 0.019.
BOLA3 (UniProt Q53S33) gave an NP40-soluble protein abundance of 0.9272 ± 0.0036.
UniProt Q5H8A4-5 showed an NP40-soluble protein abundance of 0.92 ± 0.01.
Work on UniProt Q504Q3 and related entries yielded an NP40-soluble protein abundance of 0.981 ± 0.02.
In the case of UniProt Q5TDH0 and related entries, the NP40-soluble protein abundance is reported as 0.965 ± 0.017.
UniProt Q15750 and related entries showed an NP40-soluble protein abundance of 1.01 ± 0.059.
HERC1 (UniProt Q15751) showed an NP40-soluble protein abundance of 0.901 ± 0.014.
UniProt Q5T5C0 and related entries gave an NP40-soluble protein abundance of 1.01 ± 0.024.
Work on HS1BP3 (UniProt Q53T59) yielded an NP40-soluble protein abundance of 1 ± 0.013.
Work on PGGHG (UniProt Q32M88) yielded an NP40-soluble protein abundance of 0.995 ± 0.017.
ZC3H12A (UniProt Q5D1E8) gave an NP40-soluble protein abundance of 1 ± 0.028.
CCDC58 (UniProt Q4VC31) gave an NP40-soluble protein abundance of 0.976 ± 0.039.
For GRIPAP1 (UniProt Q4V328), the NP40-soluble protein abundance was 0.985 ± 0.015.
With UniProt Q16222 and related entries the NP40-soluble protein abundance was 0.981 ± 0.033.
Work on UniProt Q5PSV4 and related entries yielded an NP40-soluble protein abundance of 0.9781 ± 0.008.
CCDC6 (UniProt Q16204) was tested, and the NP40-soluble protein abundance was 0.957 ± 0.024.
In the case of “Q5T063 and related entries (UniProt Q9NZJ6)”, the NP40-soluble protein abundance is reported as 1 ± 0.022.
With UniProt Q1ED39 the NP40-soluble protein abundance was 1.101 ± 0.008.
UniProt Q53H47 and related entries showed an NP40-soluble protein abundance of 1.02 ± 0.015.
For UniProt Q4VC05 and related entries, the NP40-soluble protein abundance was 1.02 ± 0.026.
“Q5JVZ5 and related entries (UniProt Q96JJ3)” gave an NP40-soluble protein abundance of 0.925 ± 0.081.
RABEP1 (UniProt Q15276) gave an NP40-soluble protein abundance of 0.997 ± 0.019.
FSCN1 (UniProt Q16658) showed an NP40-soluble protein abundance of 1.04 ± 0.045.
For HSDL1 (UniProt Q3SXM5), the NP40-soluble protein abundance was 0.912 ± 0.047.
UniProt Q15121 and related entries was tested, and the NP40-soluble protein abundance was 0.99 ± 0.058.
For “Q5TBM3 and related entries (UniProt Q92598)”, the NP40-soluble protein abundance was 1.03 ± 0.017.
In the case of VMA21 (UniProt Q3ZAQ7), the NP40-soluble protein abundance is reported as 0.947 ± 0.078.
For UniProt Q15777 and related entries, the NP40-soluble protein abundance was 0.974 ± 0.028.
In the case of UniProt Q16539 and related entries, the NP40-soluble protein abundance is reported as 0.971 ± 0.037.
UniProt Q2KHT3 and related entries was tested, and the NP40-soluble protein abundance was 0.89 ± 0.1.
In the case of BEND3 (UniProt Q5T5X7), the NP40-soluble protein abundance is reported as 0.941 ± 0.037.
ACSF3 (UniProt Q4G176) was tested, and the NP40-soluble protein abundance was 1.02 ± 0.091.
For UniProt Q5T3J3, the NP40-soluble protein abundance was 1.08 ± 0.019.

Same assay, conditions: concentration: 8mM
UniProt Q5SQI0 and related entries gave an NP40-soluble protein abundance of 1 ± 0.012.
In the case of UniProt Q4G0J3 and related entries, the NP40-soluble protein abundance is reported as 1.16 ± 0.033.
UniProt Q5T0F9-2 showed an NP40-soluble protein abundance of 1.05 ± 0.012.
Work on UniProt Q5JTH9 and related entries yielded an NP40-soluble protein abundance of 0.994 ± 0.025.
Target BOLA3 (UniProt Q53S33) has an NP40-soluble protein abundance of 0.894 ± 0.056.
With UniProt Q5H8A4-5 the NP40-soluble protein abundance was 0.9558 ± 0.0061.
In the case of UniProt Q504Q3 and related entries, the NP40-soluble protein abundance is reported as 0.9797 ± 0.0095.
UniProt Q5TDH0 and related entries was tested, and the NP40-soluble protein abundance was 0.966 ± 0.028.
UniProt Q15750 and related entries gave an NP40-soluble protein abundance of 1.01 ± 0.055.
For HERC1 (UniProt Q15751), the NP40-soluble protein abundance was 0.893 ± 0.029.
Work on UniProt Q5T5C0 and related entries yielded an NP40-soluble protein abundance of 0.971 ± 0.024.
Work on HS1BP3 (UniProt Q53T59) yielded an NP40-soluble protein abundance of 1.04 ± 0.018.
PGGHG (UniProt Q32M88) showed an NP40-soluble protein abundance of 0.998 ± 0.025.
ZC3H12A (UniProt Q5D1E8) was tested, and the NP40-soluble protein abundance was 0.996 ± 0.03.
In the case of CCDC58 (UniProt Q4VC31), the NP40-soluble protein abundance is reported as 0.965 ± 0.051.
GRIPAP1 (UniProt Q4V328) was tested, and the NP40-soluble protein abundance was 0.962 ± 0.021.
Work on UniProt Q16222 and related entries yielded an NP40-soluble protein abundance of 0.988 ± 0.04.
In the case of UniProt Q5PSV4 and related entries, the NP40-soluble protein abundance is reported as 0.9869 ± 0.0096.
CCDC6 (UniProt Q16204) was tested, and the NP40-soluble protein abundance was 0.9475 ± 0.0034.
For “Q5T063 and related entries (UniProt Q9NZJ6)”, the NP40-soluble protein abundance was 0.979 ± 0.032.
Work on UniProt Q1ED39 yielded an NP40-soluble protein abundance of 1.12 ± 0.017.
With UniProt Q53H47 and related entries the NP40-soluble protein abundance was 1.007 ± 0.0082.
For UniProt Q4VC05 and related entries, the NP40-soluble protein abundance was 0.997 ± 0.015.
“Q5JVZ5 and related entries (UniProt Q96JJ3)” gave an NP40-soluble protein abundance of 0.91 ± 0.054.
Work on RABEP1 (UniProt Q15276) yielded an NP40-soluble protein abundance of 0.969 ± 0.013.
For FSCN1 (UniProt Q16658), the NP40-soluble protein abundance was 1.02 ± 0.068.
In the case of HSDL1 (UniProt Q3SXM5), the NP40-soluble protein abundance is reported as 0.951 ± 0.028.
Target UniProt Q15121 and related entries has an NP40-soluble protein abundance of 0.941 ± 0.018.
Work on “Q5TBM3 and related entries (UniProt Q92598)” yielded an NP40-soluble protein abundance of 0.985 ± 0.028.
Target VMA21 (UniProt Q3ZAQ7) has an NP40-soluble protein abundance of 0.938 ± 0.028.
In the case of UniProt Q15777 and related entries, the NP40-soluble protein abundance is reported as 0.99 ± 0.012.
UniProt Q16539 and related entries showed an NP40-soluble protein abundance of 1 ± 0.059.
In the case of UniProt Q2KHT3 and related entries, the NP40-soluble protein abundance is reported as 0.812 ± 0.079.
BEND3 (UniProt Q5T5X7) showed an NP40-soluble protein abundance of 0.94 ± 0.046.
ACSF3 (UniProt Q4G176) gave an NP40-soluble protein abundance of 1.06 ± 0.11.
UniProt Q5T3J3 showed an NP40-soluble protein abundance of 1.07 ± 0.034.

Same assay, conditions: concentration: 10mM
UniProt Q5SQI0 and related entries was tested, and the NP40-soluble protein abundance was 0.995 ± 0.029.
UniProt Q4G0J3 and related entries was tested, and the NP40-soluble protein abundance was 1.29 ± 0.038.
Target UniProt Q5T0F9-2 has an NP40-soluble protein abundance of 1.08 ± 0.035.
UniProt Q5JTH9 and related entries was tested, and the NP40-soluble protein abundance was 1.01 ± 0.036.
With BOLA3 (UniProt Q53S33) the NP40-soluble protein abundance was 0.88 ± 0.046.
UniProt Q5H8A4-5 gave an NP40-soluble protein abundance of 0.952 ± 0.016.
UniProt Q504Q3 and related entries gave an NP40-soluble protein abundance of 0.984 ± 0.025.
UniProt Q5TDH0 and related entries gave an NP40-soluble protein abundance of 0.956 ± 0.047.
For UniProt Q15750 and related entries, the NP40-soluble protein abundance was 1.01 ± 0.052.
HERC1 (UniProt Q15751) was tested, and the NP40-soluble protein abundance was 0.913 ± 0.034.
UniProt Q5T5C0 and related entries was tested, and the NP40-soluble protein abundance was 1 ± 0.015.
HS1BP3 (UniProt Q53T59) gave an NP40-soluble protein abundance of 1.02 ± 0.011.
PGGHG (UniProt Q32M88) gave an NP40-soluble protein abundance of 0.982 ± 0.026.
In the case of ZC3H12A (UniProt Q5D1E8), the NP40-soluble protein abundance is reported as 0.967 ± 0.015.
For CCDC58 (UniProt Q4VC31), the NP40-soluble protein abundance was 0.945 ± 0.066.
GRIPAP1 (UniProt Q4V328) gave an NP40-soluble protein abundance of 0.976 ± 0.058.
UniProt Q16222 and related entries showed an NP40-soluble protein abundance of 0.975 ± 0.041.
In the case of UniProt Q5PSV4 and related entries, the NP40-soluble protein abundance is reported as 0.9788 ± 0.0045.
Work on CCDC6 (UniProt Q16204) yielded an NP40-soluble protein abundance of 0.916 ± 0.027.
For “Q5T063 and related entries (UniProt Q9NZJ6)”, the NP40-soluble protein abundance was 1 ± 0.059.
Work on UniProt Q1ED39 yielded an NP40-soluble protein abundance of 1.18 ± 0.068.
For UniProt Q53H47 and related entries, the NP40-soluble protein abundance was 1.01 ± 0.045.
Work on UniProt Q4VC05 and related entries yielded an NP40-soluble protein abundance of 1.01 ± 0.027.
With “Q5JVZ5 and related entries (UniProt Q96JJ3)” the NP40-soluble protein abundance was 0.909 ± 0.07.
With RABEP1 (UniProt Q15276) the NP40-soluble protein abundance was 0.991 ± 0.025.
Work on FSCN1 (UniProt Q16658) yielded an NP40-soluble protein abundance of 1.02 ± 0.039.
Target HSDL1 (UniProt Q3SXM5) has an NP40-soluble protein abundance of 0.856 ± 0.031.
UniProt Q15121 and related entries gave an NP40-soluble protein abundance of 0.965 ± 0.021.
With “Q5TBM3 and related entries (UniProt Q92598)” the NP40-soluble protein abundance was 1.02 ± 0.041.
In the case of VMA21 (UniProt Q3ZAQ7), the NP40-soluble protein abundance is reported as 0.9298 ± 0.008.
UniProt Q15777 and related entries gave an NP40-soluble protein abundance of 0.964 ± 0.045.
Target UniProt Q16539 and related entries has an NP40-soluble protein abundance of 0.931 ± 0.025.
UniProt Q2KHT3 and related entries was tested, and the NP40-soluble protein abundance was 0.816 ± 0.11.
For BEND3 (UniProt Q5T5X7), the NP40-soluble protein abundance was 0.927 ± 0.059.
ACSF3 (UniProt Q4G176) showed an NP40-soluble protein abundance of 0.956 ± 0.058.
In the case of UniProt Q5T3J3, the NP40-soluble protein abundance is reported as 1.13 ± 0.084.
